PubChem BioAssay AID1904 | GNF | 2009

Purpose: 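Novel clock parts and modifiers of the cell-autonomous circadian rhythm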 (follow-up of hits)
Cell system: human U2OS osteosarcoma cells stably expressing a destabilised luciferase driven by the Bmal1 promoter
Reagent: siRNA pair against human genes, 12.5 nM (two siRNAs, 0.5 pmol each, per well)
Timing: about 3 days after transfection, then luminescence recorded for about 4 days
Measurement: 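Bmal1 reporter light output measured every 2 hours over several days, detrended, then fitted to give period and amplitude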
Active means: 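Active when retesting with individual siRNAs reproduced the period or amplitude change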
Meaning of the calls: active = confirmed by single siRNAs; inactive = not confirmed
Only reagents picked out of a larger screen are listed. 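Lists only primary-screen hits; phenotype classes come from fitted traces, and the underlying luminescence values are not given.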 The numbers tell different reagents against one gene apart.

gene	reagent no.	clock phenotype class	confirmed with single siRNAs	outcome
STX4A	1	higher rhythm amplitude; seen with one siRNA pair in duplicate wells	phenotype not reproduced by individual siRNAs	inconclusive
STX4A	2	higher rhythm amplitude; seen with one siRNA pair in duplicate wells	phenotype not reproduced by individual siRNAs	inconclusive
CNOT2	1	longer clock period; seen with two independent siRNA pairs for the gene	phenotype reproduced by individual siRNAs	active
CNOT2	2	longer clock period; seen with two independent siRNA pairs for the gene	phenotype reproduced by individual siRNAs	active
VMD2	1	higher rhythm amplitude; seen with one siRNA pair in duplicate wells	not retested with individual siRNAs	
VMD2	2	higher rhythm amplitude; seen with one siRNA pair in duplicate wells	not retested with individual siRNAs	
LILRB1	1	shorter clock period; seen with two independent siRNA pairs for the gene	phenotype reproduced by individual siRNAs	active
LILRB1	2	shorter clock period; seen with two independent siRNA pairs for the gene	phenotype reproduced by individual siRNAs	active
CKLF	1	shorter clock period; seen with one siRNA pair in duplicate wells	phenotype reproduced by individual siRNAs	active
CKLF	2	shorter clock period; seen with one siRNA pair in duplicate wells	phenotype reproduced by individual siRNAs	active
GPR40	1	shorter clock period; seen with one siRNA pair in duplicate wells	not retested with individual siRNAs	
GPR40	2	shorter clock period; seen with one siRNA pair in duplicate wells	not retested with individual siRNAs	
DHFR	1	shorter clock period; seen with one siRNA pair in duplicate wells	phenotype reproduced by individual siRNAs	active
DHFR	2	shorter clock period; seen with one siRNA pair in duplicate wells	phenotype reproduced by individual siRNAs	active
KIAA1287	1	longer clock period; seen with two independent siRNA pairs for the gene	phenotype reproduced by individual siRNAs	active
KIAA1287	2	longer clock period; seen with two independent siRNA pairs for the gene	phenotype reproduced by individual siRNAs	active
GPR89	1	shorter clock period; seen with one siRNA pair in duplicate wells	phenotype reproduced by individual siRNAs	active
GPR89	2	shorter clock period; seen with one siRNA pair in duplicate wells	phenotype reproduced by individual siRNAs	active
POLR3F	1	longer clock period; seen with two independent siRNA pairs for the gene	phenotype reproduced by individual siRNAs	active
POLR3F	2	longer clock period; seen with two independent siRNA pairs for the gene	phenotype reproduced by individual siRNAs	active
HAS3	1	longer clock period; seen with two independent siRNA pairs for the gene	phenotype not reproduced by individual siRNAs	inconclusive
MAP3K2	1	longer clock period; seen with two independent siRNA pairs for the gene	phenotype reproduced by individual siRNAs	active
MAP3K2	2	longer clock period; seen with two independent siRNA pairs for the gene	phenotype reproduced by individual siRNAs	active
OR51B2	1	shorter clock period; seen with two independent siRNA pairs for the gene	phenotype reproduced by individual siRNAs	active
OR51B2	2	shorter clock period; seen with two independent siRNA pairs for the gene	phenotype reproduced by individual siRNAs	active
BTN2A2	1	longer clock period; seen with two independent siRNA pairs for the gene	phenotype reproduced by individual siRNAs	active
BTN2A2	2	longer clock period; seen with two independent siRNA pairs for the gene	phenotype reproduced by individual siRNAs	active
ZADH2	1	longer clock period; seen with two independent siRNA pairs for the gene	phenotype reproduced by individual siRNAs	active
ZADH2	2	longer clock period; seen with two independent siRNA pairs for the gene	phenotype reproduced by individual siRNAs	active
BDP1	1	longer clock period; seen with two independent siRNA pairs for the gene	phenotype reproduced by individual siRNAs	active
BDP1	2	longer clock period; seen with two independent siRNA pairs for the gene	phenotype reproduced by individual siRNAs	active
KIAA1797	1	longer clock period; seen with two independent siRNA pairs for the gene	phenotype reproduced by individual siRNAs	active
KIAA1797	2	longer clock period; seen with two independent siRNA pairs for the gene	phenotype reproduced by individual siRNAs	active
C9orf86	1	longer clock period; seen with two independent siRNA pairs for the gene	not retested with individual siRNAs	
C9orf86	2	longer clock period; seen with two independent siRNA pairs for the gene	not retested with individual siRNAs	

An excerpt from above, reduced to “clock phenotype class”:
CNOT2 #1 = longer clock period; seen with two independent siRNA pairs for the gene
CNOT2 #2 = longer clock period; seen with two independent siRNA pairs for the gene
VMD2 #1 = higher rhythm amplitude; seen with one siRNA pair in duplicate wells
VMD2 #2 = higher rhythm amplitude; seen with one siRNA pair in duplicate wells
